The target of the test is autophagic cargo receptor P62 (human (endogenous in SH-SY5Y)) (UniProt Q13501). Nature of the test: co-IP; SH-SY5Y cells treated with or without CORT (50 uM, 48 h); lysate incubated with anti-LC3 or anti-P62 antibody for 12 h, then agarose-protein A/G beads for 12 h; beads washed five times with cell lysis buffer; immunoblot with anti-PML antibody.

Protein sequences, listed by entry. Tags and fused reporters are not part of them.
UniProt P29590: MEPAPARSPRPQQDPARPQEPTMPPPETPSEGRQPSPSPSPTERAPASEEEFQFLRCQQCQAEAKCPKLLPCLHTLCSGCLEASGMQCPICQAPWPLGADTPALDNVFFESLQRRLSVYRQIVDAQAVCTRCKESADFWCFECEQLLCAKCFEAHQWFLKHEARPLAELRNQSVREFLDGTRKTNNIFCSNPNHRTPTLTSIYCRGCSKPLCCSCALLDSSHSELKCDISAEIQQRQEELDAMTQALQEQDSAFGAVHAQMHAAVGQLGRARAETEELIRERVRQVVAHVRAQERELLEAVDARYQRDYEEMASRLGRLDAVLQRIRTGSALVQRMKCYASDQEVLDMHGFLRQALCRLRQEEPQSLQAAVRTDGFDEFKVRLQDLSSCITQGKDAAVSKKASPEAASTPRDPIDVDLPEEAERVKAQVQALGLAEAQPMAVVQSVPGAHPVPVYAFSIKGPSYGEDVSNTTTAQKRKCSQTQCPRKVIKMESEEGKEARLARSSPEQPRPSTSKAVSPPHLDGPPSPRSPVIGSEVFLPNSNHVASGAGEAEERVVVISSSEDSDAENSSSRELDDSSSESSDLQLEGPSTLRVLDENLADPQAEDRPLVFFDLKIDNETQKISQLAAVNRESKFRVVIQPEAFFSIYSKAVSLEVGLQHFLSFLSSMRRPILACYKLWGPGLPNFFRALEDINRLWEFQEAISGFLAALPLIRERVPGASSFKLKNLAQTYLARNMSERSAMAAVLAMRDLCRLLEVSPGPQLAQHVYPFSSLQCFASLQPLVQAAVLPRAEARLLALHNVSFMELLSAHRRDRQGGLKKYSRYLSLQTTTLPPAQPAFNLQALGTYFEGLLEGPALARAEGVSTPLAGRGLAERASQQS

No constants are given. Whether binding was seen depends on the method and setting. In cells and extracts the contact can be indirect. Some binding calls cover weakened binding; strength is not graded here.

Turning to “Promyelocytic leukemia protein (PML) (from UniProt P29590 1-882)”, the binding entry is reported as “binds”.

Source of the values: publication PMC7415815.
